In PubChem BioAssay AID504444 (National Center for Advancing Translational Sciences (NCATS), 2011):
In all, about 360,000 compounds went through this assay and about 7,500 (2.1%) were called active. The shares of active, inactive and inconclusive entries below differ from those in the screen. Calls follow the shape of the dose curve; as a rule, active = well fitted inhibition curve with a large enough effect; inconclusive = small, poorly fitted or top-dose-only effect, or effect the other way; inactive = flat fitted curve, though single readings scatter. Where the call is inconclusive, the potency comes from a doubtful curve fit.
Potency is read from the fitted curve at half-maximal effect.

Assay: Nrf2 qHTS screen for inhibitors; also: nearly all actives have a fitted effect of over 60% in size
Conditions: A549 ARE-Fluc reporter, luciferase luminescence, 18-24 h; series mostly up to 46 µM
Outline: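 Cells were seeded and rested 2 h, then exposed to compounds for 18-24 h. CellTiter-Fluor was read first as a viability measure. BugLite was added 15 min before the final luminescent read of ARE-luciferase activity in A549 cells.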
With `Cc1ccc(C)c(N2CCN(c3ncnc4onc(C)c34)CC2)c1` the Potency was active: 13 µM.
For `C/C(=N/O)c1ccc2ccc3ccccc3c2c1`, the Potency was inconclusive: 18.4 µM [activator, single point].
In the case of `Cc1oc(-c2ccc(F)cc2F)nc1CN1C[C@@H]2C[C@@H](C1)c1cccc(=O)n1C2`, the Potency is reported as inconclusive: 32.6 µM [falling, single point].
For `O=C1/C(=C/c2ccccc2)C[C@@]2(O)[C@H]3Cc4ccc(O)c5c4[C@@]2(CCN3CC2CC2)C1O5` (stereo partly drawn), the Potency was active: 11.6 µM.
With `Cc1c(N=Cc2c(O)n(Cc3ccco3)c(=O)[nH]c2=O)c(=O)n(-c2ccccc2)n1C` the Potency was “inactive”.
With `CCc1ccc(CNC(=O)C2CCN(C(=O)c3ccc(-n4c(C)cc5ccccc54)s3)CC2)cc1` the Potency was active: 18.4 µM.
With `Cc1[nH]c2ccccc2c1C(=O)CN1CC=C(c2ccccc2)CC1` the Potency was inconclusive: 29.1 µM [falling, single point].
In the case of `COc1ccccc1NC(=O)c1cn(CCC#N)nc1-c1cccc(Cl)c1`, the Potency is reported as inconclusive: 18.4 µM [falling, partial curve, poor fit].
With `COC(=O)C1=C(c2cc3ccccc3o2)C[C@@H]2CC[C@H]1N2C(=O)NC1CCCCC1` the Potency was inconclusive: 23.1 µM [falling, single point].
In the case of `CCOC(=O)c1c(C=O)c2ccccc2n1Cc1ccccc1`, the Potency is reported as “inactive”.
With `COc1cccc(N2C(=O)NC(=O)/C(=C/c3ccc([N+](=O)[O-])s3)C2=O)c1` the Potency was “inactive”.
For `O=C1C(=Cc2ccccc2)N2CCC1CC2`, the Potency was inconclusive: 29.1 µM [activator, partial curve, poor fit].
In the case of `N#C/C(N)=C(/N)C#N`, the Potency is reported as inconclusive: 32.6 µM [falling, partial curve, poor fit].
In the case of `CC(C)N1C(=S)SC(C)(C)C1n1oc(=O)n(-c2cccc(Cl)c2)c1=O` (stereo not drawn), the Potency is reported as inconclusive: 20.6 µM [falling, partial curve, poor fit].
In the case of `Cc1ccc2c(c1)C1CN(C)CCC1N2C(=O)/C(C#N)=C/c1ccc2c(c1)OCO2` (stereo not drawn), the Potency is reported as inconclusive: 2.06 µM [falling, partial curve, poor fit].
For `Cc1cc(C(=O)N=Nc2c(O)n(C)c3ccccc23)c(C)o1`, the Potency was inconclusive: 3.26 µM [activator, full curve, poor fit].
For `CCCCOP(=O)(c1ccc(N(C)C)cc1)C(Nc1ccccc1)c1ccccc1` (stereo not drawn), the Potency was inconclusive: 18.4 µM [falling, single point].
With `CCCCn1c(O)c(C(C)=NCc2ccc3c(c2)OCO3)c(=O)[nH]c1=O` the Potency was inconclusive: 20.6 µM [falling, single point].
